Experimental data as given in PubChem BioAssay AID330 (DTP/NCI, 2004).
The list does not hold the whole screen: it gathers tests that were run many times, whatever their T/C, doses with no T/C, and many T/C values between a quarter and a half above the control. Further doses and runs are listed elsewhere. T/C is the treated group as % of the vehicle group. Some doses have a count of surviving animals in place of a T/C: the source files T/C as zero there, which appears to mark a toxic dose or a test without result, not a measured value. Some doses without a T/C left all or most animals alive at the check, yet need not have been tolerated: survival well below the control is almost never listed, so the zero probably covers shortened survival too. Survivors were counted at the toxicity check, usually on the fifth day, unless a day is given; later deaths do not show. Schedule codes are those of the source, read here as Q, the interval in days (D) or hours (H), X, the number of doses. Some entries were tested several times; the results are listed from low to high. Where survival is the endpoint, the PubChem record calls one and a half times the control and up active, and a quarter to a half above the control has no call in these data; cut-offs in other NCI protocols can differ.

System: P388 leukemia ip, CD2F1 mice, survival T/C
Experiment: NCI In Vivo Anticancer Drug Screen. Data for tumor model P388 Leukemia (intraperitoneal) in CD2F1 (CDF1) mice
Conditions: T/C endpoint: median survival time, higher T/C = longer survival
[1] = dose: 25.0 mg/kg/injection, schedule: Q01DX005 (ip), vehicle: saline with Tween-80
[2] = dose: 50.0 mg/kg/injection, schedule: Q01DX005 (ip), vehicle: saline with Tween-80
[3] = dose: 200.0 mg/kg/injection, schedule: Q01DX005 (ip), vehicle: Klucel (hydroxypropylcellulose) (HPC)
[4] = dose: 200.0 mg/kg/injection, schedule: Q01DX009 (ip), vehicle: saline
[5] = dose: 100.0 mg/kg/injection, schedule: Q01DX009 (ip), vehicle: saline with Tween-80
[6] = dose: 200.0 mg/kg/injection, schedule: Q01DX009 (ip), vehicle: saline with Tween-80
[7] = dose: 100.0 mg/kg/injection, schedule: Q01DX005 (ip), vehicle: Klucel (hydroxypropylcellulose) (HPC)
[8] = dose: 200.0 mg/kg/injection, schedule: Q04DX002 (ip), vehicle: Klucel (hydroxypropylcellulose) (HPC)
[9] = dose: 400.0 mg/kg/injection, schedule: Q04DX002 (ip), vehicle: Klucel (hydroxypropylcellulose) (HPC)
[10] = dose: 100.0 mg/kg/injection, schedule: Q01DX009 (ip), vehicle: Klucel (hydroxypropylcellulose) (HPC)
[11] = dose: 200.0 mg/kg/injection, schedule: Q01DX009 (ip), vehicle: Klucel (hydroxypropylcellulose) (HPC)
[12] = dose: 50.0 mg/kg/injection, schedule: Q01DX009 (ip), vehicle: saline
[13] = dose: 100.0 mg/kg/injection, schedule: Q01DX009 (ip), vehicle: saline
[14] = dose: 100.0 mg/kg/injection, schedule: Q01DX005 (ip), vehicle: saline with Tween-80
[15] = dose: 200.0 mg/kg/injection, schedule: Q01DX005 (ip), vehicle: saline with Tween-80

With `O=[N+]([O-])c1ccccc1N=Nc1c(-c2ccccc2)nn(C(=S)N2CCOCC2)c1-c1ccccc1` the survivor count (dose: 12.5 mg/kg/injection, schedule: Q01DX005 (ip), vehicle: saline with Tween-80) was 6 of 6, the survivor count [1] was 6 of 6 and the survivor count [2] was 6 of 6.

`COc1ccc(Cc2c3cc(OC)c(OC)cc3cc[n+]2CC(=O)c2ccc(Cl)cc2)cc1OC` was tested, and the survivor count [3] was 0 of 5.

With `CC(C)c1cccc(O)c1O` the survivor count [4] was 0 of 6, the survivor count (dose: 400.0 mg/kg/injection, schedule: Q01DX009 (ip), vehicle: saline) was 0 of 6 and the survivor count (dose: 600.0 mg/kg/injection, schedule: Q01DX009 (ip), vehicle: saline) was 0 of 6.

`COc1cccc2c1cc([N+](=O)[O-])c1c(C(=O)O)cc3c(c12)OCO3` was tested, and the survivor count (dose: 10.0 mg/kg/injection, schedule: Q01DX009 (ip), vehicle: Klucel (hydroxypropylcellulose) (HPC)) was 6 of 6 and the survivor count (dose: 20.0 mg/kg/injection, schedule: Q01DX009 (ip), vehicle: saline) was 6 of 6.

In the case of `COc1ccc(/C(C#N)=C2\OC(=O)c3ccccc32)cc1OC`, the survivor count (dose: 25.0 mg/kg/injection, schedule: Q01DX009 (ip), vehicle: saline with Tween-80) is reported as 6 of 6, the survivor count (dose: 50.0 mg/kg/injection, schedule: Q01DX009 (ip), vehicle: saline with Tween-80) is reported as 6 of 6 and the survivor count [5] is reported as 5 of 6. The survivor count [6] was 6 of 6.

`COc1cc2c(cc1O)Cc1c-2[n+](C)cc2cc(OC)c(OC)cc12` was tested, and the T/C (dose: 12.5 mg/kg/injection, schedule: Q01DX005 (ip), vehicle: Klucel (hydroxypropylcellulose) (HPC)) was 130 % of control, the T/C (dose: 25.0 mg/kg/injection, schedule: Q01DX005 (ip), vehicle: Klucel (hydroxypropylcellulose) (HPC)) was 138 % of control and the T/C (dose: 50.0 mg/kg/injection, schedule: Q01DX005 (ip), vehicle: Klucel (hydroxypropylcellulose) (HPC)) was 132 and 149 % of control. The T/C (dose: 50.0 mg/kg/injection, schedule: Q04DX002 (ip), vehicle: Klucel (hydroxypropylcellulose) (HPC)) was 125 % of control, the T/C [7] was 128 % of control and the T/C (dose: 100.0 mg/kg/injection, schedule: Q04DX002 (ip), vehicle: Klucel (hydroxypropylcellulose) (HPC)) was 137 % of control. The T/C [8] was 145 % of control, the survivor count [8] was 0 of 6 and the survivor count [9] was 0 of 5.

`C/C(=N\N=C(/[Se])N1CC2CCC(CC2)C1)c1ccccn1` was tested, and the T/C (dose: 3.12 mg/kg/injection, schedule: Q01DX009 (ip), vehicle: Klucel (hydroxypropylcellulose) (HPC)) was 125 % of control, the T/C (dose: 6.25 mg/kg/injection, schedule: Q01DX009 (ip), vehicle: Klucel (hydroxypropylcellulose) (HPC)) was 129 and 133 % of control and the survivor count (dose: 12.5 mg/kg/injection, schedule: Q01DX009 (ip), vehicle: Klucel (hydroxypropylcellulose) (HPC)) was 5 of 6. The survivor count (dose: 25.0 mg/kg/injection, schedule: Q01DX009 (ip), vehicle: Klucel (hydroxypropylcellulose) (HPC)) was 5 of 6, the survivor count (dose: 50.0 mg/kg/injection, schedule: Q01DX009 (ip), vehicle: Klucel (hydroxypropylcellulose) (HPC)) was 2 of 6 and 5 of 6 and the survivor count [10] was 0 of 6. For the same compound, the survivor count [11] was 0 of 6.

With `O=C(NCCSCCSCCSCCNC(=O)Oc1ccccc1)Oc1ccccc1` the survivor count (dose: 400.0 mg/kg/injection, schedule: Q01DX001 (ip), vehicle: Klucel (hydroxypropylcellulose) (HPC)) was 6 of 6.

`CCC[CH2][Sn]([CH2]CCC)([CH2]CCC)[CH2]CC[N+](C)(CCO)CCO.CS(=O)(=O)[O-]` was tested, and the survivor count [12] was 2 of 6, the survivor count [13] was 0 of 6 and the survivor count [4] was 0 of 6.

`CN(CCCCN(C)CCOS(C)(=O)=O)CCOS(C)(=O)=O` was tested, and the T/C (dose: 0.03 mg/kg/injection, schedule: Q01DX009 (ip), vehicle: saline) was 129 % of control, the T/C (dose: 0.15 mg/kg/injection, schedule: Q01DX009 (ip), vehicle: saline) was 134 % of control and the survivor count (dose: 0.2 mg/kg/injection, schedule: Q01DX009 (ip), vehicle: saline) was 6 of 6. The survivor count (dose: 2.5 mg/kg/injection, schedule: Q01DX009 (ip), vehicle: saline) was 6 of 6, the survivor count (dose: 5.0 mg/kg/injection, schedule: Q01DX009 (ip), vehicle: saline) was 5 of 6 and the survivor count (dose: 20.0 mg/kg/injection, schedule: Q04DX003 (ip), vehicle: saline) was 5 of 6.

`N=C(N)SCc1ccc([N+](=O)[O-])cc1` was tested, and the survivor count [10] was 5 of 6 and the survivor count [11] was 0 of 6.

In the case of `O=C1CN(CCN2CCCCC2)CC(=O)N2Cc3ccccc3CN12`, the survivor count [14] is reported as 0 of 5 and the survivor count [15] is reported as 0 of 5.

`COc1cc(C(=O)O)cc(C(=O)O)c1` was tested, and the survivor count [12] was 3 of 6, the survivor count [13] was 0 of 6 and the survivor count [4] was 0 of 6.

For `Oc1c(Cl)cc(Cl)cc1/C=N\NC(=S)Nc1ccccc1`, the survivor count [9] was 4 of 6.

For `CCOc1ccc(C(C#N)N(C)C)cc1OCC` (stereo not given), the survivor count [5] was 3 of 6 and the survivor count [6] was 0 of 6.

With `COc1ccc(C2CC(=O)C=C3c4ccc(OC)cc4CCC32)cc1` (stereo not given) the survivor count [11] was 6 of 6.

`CC(=O)c1cc(C)[nH]c1C` was tested, and the survivor count (dose: 300.0 mg/kg/injection, schedule: Q01DX009 (ip), vehicle: saline with Tween-80) was 0 of 6 and the survivor count (dose: 600.0 mg/kg/injection, schedule: Q01DX009 (ip), vehicle: saline with Tween-80) was 0 of 6.

In the case of `CC1=CC(C)C/C=C/C2C3OC3(C)C(C)C3C(Cc4c[nH]c5ccccc45)NC(=O)C23C(=O)C=CC(=O)C1O` (stereo not given), the T/C (dose: 4.0 mg/kg/injection, schedule: Q01DX005 (ip), vehicle: Klucel (hydroxypropylcellulose) (HPC)) is reported as 126 % of control and the T/C (dose: 8.0 mg/kg/injection, schedule: Q01DX005 (ip), vehicle: Klucel (hydroxypropylcellulose) (HPC)) is reported as 126 % of control.

`Cc1cc(Cl)c2c(N(C)C)cccc2n1` was tested, and the survivor count (dose: 200.0 mg/kg/injection, schedule: Q01DX009 (ip), vehicle: acid diluted with saline) was 6 of 6.

In the case of `Cn1c(O)c(N=O)c(=O)[nH]c1=O`, the survivor count (dose: 200.0 mg/kg/injection, schedule: Q04DX002 (ip), vehicle: saline with Tween-80) is reported as 2 of 6 and the survivor count (dose: 400.0 mg/kg/injection, schedule: Q04DX002 (ip), vehicle: saline with Tween-80) is reported as 0 of 6.

For `CC(C)CCCCCCCCCCCCC(=O)NCC(=O)NC1C(CO)OC(Nc2ncnc3nc[nH]c23)C(O)C1O` (stereo not given), the T/C (dose: 0.25 mg/kg/injection, schedule: Q01DX009 (ip), vehicle: other) was 125 and 142 % of control, the T/C (dose: 0.5 mg/kg/injection, schedule: Q01DX009 (ip), vehicle: other) was 137 % of control and the T/C (dose: 1.0 mg/kg/injection, schedule: Q01DX009 (ip), vehicle: other) was 142 % of control. For the same compound, the survivor count (dose: 2.0 mg/kg/injection, schedule: Q01DX009 (ip), vehicle: other) was 6 of 6 and the survivor count (dose: 4.0 mg/kg/injection, schedule: Q01DX009 (ip), vehicle: other) was 6 of 6.

For `Cc1cccc(C)c1-n1c(C)nc2[nH]cc(C)c2c1=N`, the survivor count [7] was 0 of 6 and the survivor count [3] was 0 of 6.

With `Cc1nn(C(=O)c2cccnc2)c(-c2ccccc2)c1N=Nc1ccc(S(=O)(=O)N=C(N)N)cc1` the survivor count [1] was 6 of 6, the survivor count [2] was 6 of 6 and the survivor count [14] was 6 of 6. For the same compound, the survivor count [15] was 6 of 6.

With `C[CH2][Pb]([CH2]C)([CH2]C)[n]1cnc2ccccc21` the survivor count (dose: 6.0 mg/kg/injection, schedule: Q01DX009 (ip), vehicle: Klucel (hydroxypropylcellulose) (HPC)) was 4 of 6 and the survivor count (dose: 12.0 mg/kg/injection, schedule: Q01DX009 (ip), vehicle: Klucel (hydroxypropylcellulose) (HPC)) was 0 of 6.
